The record followed here is article PMC7181697.

Amino acid sequences for entries named in this document (tags omitted). A change or cut given only in a name is not applied to a line headed by its entry.
UniProt Q9UI95: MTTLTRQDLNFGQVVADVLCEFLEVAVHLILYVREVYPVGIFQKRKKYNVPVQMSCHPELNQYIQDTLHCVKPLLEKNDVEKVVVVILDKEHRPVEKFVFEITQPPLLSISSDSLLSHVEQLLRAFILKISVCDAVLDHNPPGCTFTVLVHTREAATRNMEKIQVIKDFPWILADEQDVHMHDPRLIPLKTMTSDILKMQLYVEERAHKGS
UniProt Q9UBT6: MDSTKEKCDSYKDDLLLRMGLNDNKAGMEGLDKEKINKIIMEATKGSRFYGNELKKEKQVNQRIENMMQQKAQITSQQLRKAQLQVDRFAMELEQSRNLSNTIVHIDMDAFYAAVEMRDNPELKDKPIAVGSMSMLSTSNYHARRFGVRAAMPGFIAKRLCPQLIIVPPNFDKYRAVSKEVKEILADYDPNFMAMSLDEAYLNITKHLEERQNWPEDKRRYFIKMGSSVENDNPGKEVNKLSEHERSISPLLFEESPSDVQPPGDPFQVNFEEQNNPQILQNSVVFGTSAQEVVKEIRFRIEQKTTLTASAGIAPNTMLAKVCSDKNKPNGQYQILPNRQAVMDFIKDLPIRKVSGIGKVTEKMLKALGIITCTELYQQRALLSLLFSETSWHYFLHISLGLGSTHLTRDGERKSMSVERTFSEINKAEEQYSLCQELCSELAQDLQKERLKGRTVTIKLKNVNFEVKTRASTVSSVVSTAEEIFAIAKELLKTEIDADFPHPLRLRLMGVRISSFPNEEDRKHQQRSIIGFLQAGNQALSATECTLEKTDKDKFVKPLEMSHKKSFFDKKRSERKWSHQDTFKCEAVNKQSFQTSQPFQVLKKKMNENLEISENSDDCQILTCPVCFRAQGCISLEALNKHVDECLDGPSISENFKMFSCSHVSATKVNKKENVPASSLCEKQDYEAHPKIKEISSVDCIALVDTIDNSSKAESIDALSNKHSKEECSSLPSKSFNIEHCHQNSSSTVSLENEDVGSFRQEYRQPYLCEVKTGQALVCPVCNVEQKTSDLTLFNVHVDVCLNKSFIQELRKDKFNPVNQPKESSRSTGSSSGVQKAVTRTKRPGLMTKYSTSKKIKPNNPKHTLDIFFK

Experiment [1] concerns the target REV7^E35A (human) (UniProt Q9UI95). Put plainly: SEC; Superdex 200 Increase 10/300 GL, 20 mM Tris/HCl pH 8.0, 150 mM NaCl, 1% glycerol, 1 mM TCEP; proteins mixed and incubated 10 min on ice; 0.5 ml fractions on SDS-PAGE, Coomassie; both purified. Background: Size exclusion chromatography separates by hydrodynamic size, large species first.
The target in a further experiment is REV7^K190A (human) (UniProt Q9UI95). Put plainly: SEC-MALS; co-expressed and co-purified REV7-SHLD3(1-82) samples; 100 μl at 5 mg/ml, WTC-015S5 column, 20 mM Tris-HCl pH 8.0, 150 mM NaCl, 1% glycerol, 1 mM TCEP, 0.01% NaN3; both purified.
Another experiment deals with REV7^K44A (human) (UniProt Q9UI95). Described as above.
For experiment [2], the target named is REV7 (full length, wild type) (human) (UniProt Q9UI95). The experiment is described as above.
The next experiment has as its target REV7^W171A (human) (UniProt Q9UI95). The description is as above.
The target of a further experiment is REV7^Y63A (human) (UniProt Q9UI95). The description is as above.
A further experiment concerns the target REV7^R124A (human) (UniProt Q9UI95). Described as above.
Another experiment concerns the target REV7^K129A (human) (UniProt Q9UI95). The description is as above.
The target of experiment [3] is REV7^E35A (human) (UniProt Q9UI95). Described as above.
Experiment [4] has as its target REV7 (full length, wild type) (human) (UniProt Q9UI95). The experiment in a line: crystal structure; REV7, SHLD3(1-64) and SHLD2(1-52) co-expressed and co-purified; sitting drop, 0.02 M magnesium chloride hexahydrate, 0.1 M HEPES 7.5, 22% w/v poly(acrylic acid sodium salt) 5100, 20 °C, 5 mg/ml; both purified.
The target in the next experiment is T1, SHLD3(1-64) (human) (UniProt Q6ZNX1).
T1 sequence: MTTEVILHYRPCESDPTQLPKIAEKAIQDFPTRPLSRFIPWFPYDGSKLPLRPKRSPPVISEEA
The description is as above.

The target of a further experiment is Flag-REV7^Y63A (human) (UniProt Q9UI95). Put plainly: co-IP; Flag-REV7 mutants, S-tag-HA-SHLD3 and GFP-REV3(1042-1251 + 1847-2021) co-expressed in HEK293FT cells; DMSO or 1 μM doxorubicin for 24 h; NP-40 lysis buffer; anti-Flag agarose, 4 °C, 4 h; immunoblot. (In general: In western blotting, separated proteins are transferred to a membrane and probed.)
The target in another experiment is Flag-REV7^W171A (human) (UniProt Q9UI95). The experiment is described as above.
In the next experiment the target is T2, S-tag-HA-SHLD3 (human) (UniProt Q6ZNX1).
T2 sequence: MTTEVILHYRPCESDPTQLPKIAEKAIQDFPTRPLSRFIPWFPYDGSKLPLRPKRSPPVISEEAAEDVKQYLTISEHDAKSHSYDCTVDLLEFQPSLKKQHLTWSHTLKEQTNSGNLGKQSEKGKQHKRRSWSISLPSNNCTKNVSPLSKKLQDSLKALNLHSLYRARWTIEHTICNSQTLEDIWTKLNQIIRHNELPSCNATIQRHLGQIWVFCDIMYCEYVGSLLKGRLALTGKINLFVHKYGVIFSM
The experiment in a line: pull-down; S-tag-HA-SHLD3 and GFP-REV3(1847-2021) co-expressed in HEK293T cells; DMSO or 1 μM doxorubicin for 24 h; NP-40 lysis buffer; S-protein agarose, 4 °C, 3 h; immunoblot.

The target in experiment [5] is REV7^K44A-SHLD3(1–82) (human) (UniProt Q9UI95+Q6ZNX1). The experiment in a line: ITC; ITC200, 25 °C, 20 mM Tris pH 8.0, 150 mM NaCl, 1% glycerol, 1 mM TCEP; one set of sites model; both purified. On the technique in general: Isothermal titration calorimetry measures the heat released or taken up as one component is titrated into another.
Experiment [6] deals with REV7^K44A-SHLD3(38–82) (human) (UniProt Q9UI95+Q6ZNX1). The description is as above.
Experiment [7] addresses REV7^WT-REV3(1871–2021) (human) (UniProt Q9UI95+O60673). The experiment is described as above.

These are yes or no findings as the source states them, for the method shown. For some of these results: In cells and extracts the contact can be indirect. Some binding calls cover weakened binding; strength is not graded here. For some of these results: Tags and fused reporters may be left off the sequences shown.

B1: SHLD3(1–82), untagged, co-expressed with REV7 (domain or fragment, UniProt Q6ZNX1 1-82)
chain: MTTEVILHYRPCESDPTQLPKIAEKAIQDFPTRPLSRFIPWFPYDGSKLPLRPKRSPPVISEEAAEDVKQYLTISEHDAKSH
For the molecule B1, the binding result (with REV7^E35A (human) [1]; with REV7^K190A (human); with REV7^K44A (human); in experiment [2]; in the experiment with REV7^W171A (human); with REV7^Y63A (human)) was “binds” in each case. The binding entry with REV7^R124A (human), in the experiment with REV7^K129A (human) and in the experiment with REV7^E35A (human) [3] was “binds” throughout.

B2: SHLD2(1-52) (domain or fragment, UniProt Q86V20 1-52)
chain: MSGGSQVHIFWGAPIAPLKITVSEDTASLMSVADPWKKIQLLYSQHSLYLKD
On to B2, for which the binding entry (in [4]; with SHLD3(1-64) (human)) was “binds” throughout.

B3: S-tag-HA-SHLD3 (protein, UniProt Q6ZNX1 1-250)
chain: T2 sequence
For B3, the binding entry with Flag-REV7^Y63A (human) and with Flag-REV7^W171A (human) was “binds” each time.

B4: SHLD3(1-64) (domain or fragment, UniProt Q6ZNX1 1-64)
chain: T1 sequence
B4: the binding entry in experiment [4] was “binds”.

B5: GFP-tagged REV3(1847–2021) (domain or fragment, UniProt O60673 1847-2021)
chain: MLTPTPDSSPRSTSSPSQSKNGSFTPRTANILKPLMSPPSREEIMATLLDHDLSETIYQEPFCSNPSDVPEKPREIGGRLLMVETRLANDLAEFEGDFSLEGLRLWKTAFSAMTQNPRPGSPLRSGQGVVNKGSSNSPKMVEDKKIVIMPCKCAPSRQLVQVWLQAKEEYERSKK
With B5, in the experiment with S-tag-HA-SHLD3 (human), the binding result is on record as “binds”.

B6: cREV1 CTD (chimeric REV1 CTD: POL κ RIR fused to the N-terminus of REV1 CTD) (protein, UniProt Q9UBT6 562-577; Q9UBZ9 1140-1251)
chain: SHKKSFFDKKRSERKWGLSSLQSDPAGCVRPPAPNLAGAVEFNDVKTLLREWITTISDPMEEDILQVVKYCTDLIEEKDLEKLDLVIKYMKRLMQQSVESVWNMAFDFILDNVQVVLQQTYGSTLKVT
Turning to B6, the figures for the binding entry in experiment [5], in experiment [6] and in [7] were “no binding”, “no binding” and “binds”, respectively.

B7: GFP-tagged REV3(1042–1251 + 1847–2021) (domain or fragment, UniProt O60673 1042-1251; O60673 1847-2021)
chain: PKKSHRRKSKHKSAKKKTGKQQRTNNENIKRTLSFRKKRSHAILSPPSPSYNAETEDCDLNYSDVMSKLGFLSERSTSPINSSPPRCWSPTDPRAEEIMAAAEKEAMLFKGPNVYKKTVNSRIGKTSRARAQIKKSKAKLANPSIVTKKRNKRNQTNKLVDDGKKKPRAKQKTNEKGTSRKHTTLKDEKIKSQSGAEVKFVLKHQNVSEFMLTPTPDSSPRSTSSPSQSKNGSFTPRTANILKPLMSPPSREEIMATLLDHDLSETIYQEPFCSNPSDVPEKPREIGGRLLMVETRLANDLAEFEGDFSLEGLRLWKTAFSAMTQNPRPGSPLRSGQGVVNKGSSNSPKMVEDKKIVIMPCKCAPSRQLVQVWLQAKEEYERSKK
As to B7, the binding result with Flag-REV7^W171A (human) is reported as “binds”.
